{
  "source": "paper PMC12370185",
  "test_in_all_cases": "EMSA with sequencing",
  "settings_in_all_cases": "10 mM Tris-Cl pH 7.5, 50 mM NaCl, 1 mM DTT, 0.25 mg/ml BSA, 2 mM MgCl2, 0.025% Nonidet P-40, 5% glycerol; 28 nM nucleosome library; 10 min on ice then 30 min …; high values mean tight binding; double strand, one strand shown",
  "key": {"KLF4 + histone octamer": {"test_system": "KLF4 + histone octamer"}, "OCT4 + histone octamer": {"test_system": "OCT4 + histone octamer"}, "SOX2 + histone octamer": {"test_system": "SOX2 + histone octamer"}, "[1]": {"test_system": "c-MYC + MAX + histone octamer"}},
  "note": "The list shows a part of the results.",
  "data": [
    {"sequence": "GATGGACCCTATACGCGGCTCTTTCCTTCCCCGTCTCTTTCCCCAGGTGTTAGCCCAGTATCCCAGTCTGAAGACGTCCGCCCTTTATCTTTCACAGGGATTCCCTTGATAAATCCCCTGCAAGTCTGAGCCTGTCCTGGCATCTGCTTCCCAGAGGATCCAAATTAACACAGATAACTTCCATTTTGTAGGATGAGATAATGAAGTCTATGCCAGTCGGATAGTGTTCC", "values": [
      {"measurement": "binding signal (log2 relative supershift)", "setting": "KLF4 + histone octamer", "result": 1.36},
      {"measurement": "binding signal (log2 relative supershift)", "setting": "OCT4 + histone octamer", "result": 0.411},
      {"measurement": "binding signal (log2 relative supershift)", "setting": "SOX2 + histone octamer", "result": 1.13},
      {"measurement": "binding signal (log2 relative supershift)", "setting": "[1]", "result": 0.164}
    ]},
    {"sequence": "GATGGACCCTATACGCGGCGTTCTAGTGTATTTTAAAAGGTTTCTGTATGCAAGAGCGTGTTCATTGTGCAGAGCAGAGTGTCTGTTTTAAAGCAGTGGCTCTCAGCTCTCATTGTTCTGCAGAATCACCTGGGCCCTACCCCAGAGCTTCTGATTCATTTGGTCTGAGATGAGGCTTAGCCGTGGTTTTAGTTTTAAGCTCCCTGGAGATGCCAGTCGGATAGTGTTCC", "values": [
      {"measurement": "binding signal (log2 relative supershift)", "setting": "KLF4 + histone octamer", "result": 1.51},
      {"measurement": "binding signal (log2 relative supershift)", "setting": "OCT4 + histone octamer", "result": 0.394},
      {"measurement": "binding signal (log2 relative supershift)", "setting": "SOX2 + histone octamer", "result": 0.899},
      {"measurement": "binding signal (log2 relative supershift)", "setting": "[1]", "result": 0.457}
    ]},
    {"sequence": "GATGGACCCTATACGCGGCTCCATGGGTGCAGCAAGAGTGACAATACATCACAGCCTCGACATCTGTGACAAGCCCAGCCTTTTGACAGTCTAGTGAGGGGGTGTGCATCTTGAATATTACCAGATGTGTCACAATCTTTGTTCCCCAAATACTTACTCCCTTTTGGATAACAAAACAGCAGAAGACACTACTCAGAACAATTAAAAAGGTGCCAGTCGGATAGTGTTCC", "values": [
      {"measurement": "binding signal (log2 relative supershift)", "setting": "KLF4 + histone octamer", "result": 1.58},
      {"measurement": "binding signal (log2 relative supershift)", "setting": "OCT4 + histone octamer", "result": 0.0312},
      {"measurement": "binding signal (log2 relative supershift)", "setting": "SOX2 + histone octamer", "result": 1.83},
      {"measurement": "binding signal (log2 relative supershift)", "setting": "[1]", "result": 0.419}
    ]},
    {"sequence": "GATGGACCCTATACGCGGCAGGACACAGCCACATCTCCAACCCGACCCACAAGTCTTTACACCAGATGCTTTGTGCAGATATGGGAGCCAGCACAGGGGGCTTGTCTGGGCATGCCCCACAACCACTAGGAGAATGGGTGGAGCCACCAGGAATTCATGAATTATGAGGGGAAAGAGCCTGGCCTCTTCAACTCACGTGTGGTGGCCTGCTGCCAGTCGGATAGTGTTCC", "values": [
      {"measurement": "binding signal (log2 relative supershift)", "setting": "KLF4 + histone octamer", "result": 1.21},
      {"measurement": "binding signal (log2 relative supershift)", "setting": "OCT4 + histone octamer", "result": 0.0349},
      {"measurement": "binding signal (log2 relative supershift)", "setting": "SOX2 + histone octamer", "result": 0.175},
      {"measurement": "binding signal (log2 relative supershift)", "setting": "[1]", "result": 0.656}
    ]},
    {"sequence": "GATGGACCCTATACGCGGCCATTTGCAGAGAGTGGCATTTCTAAGGTACTCTTAGATTTCCTCCCCGTGTCTCAGTGTCCTCCAGGAGTGTGCAGGGAACAGCCTGTGGTTATGCGCATTTGTGCTGGGAAGAGATGTAACTATCCATGTGCAGGACATTTGGGAGGGGTGGGAGTGTGTGGGTACGTGGCCCTGTGCAGGTTGAGTGTGTGCCAGTCGGATAGTGTTCC", "values": [
      {"measurement": "binding signal (log2 relative supershift)", "setting": "KLF4 + histone octamer", "result": 1.82},
      {"measurement": "binding signal (log2 relative supershift)", "setting": "OCT4 + histone octamer", "result": 0.139},
      {"measurement": "binding signal (log2 relative supershift)", "setting": "SOX2 + histone octamer", "result": 0.616},
      {"measurement": "binding signal (log2 relative supershift)", "setting": "[1]", "result": 0.621}
    ]},
    {"sequence": "GATGGACCCTATACGCGGCTACAGTTGAATCCAAAAGCATTTATAGGAAACAAGTGAGGGCTGGGCATCTCATTTGCATAATGCATGAATTTCTGGTAGCTCCACCCCATCCTCCTAATGCACATGTGGACCCTTAGCTTGAGTTACTTCATATTGCTTTGCTCCCCTTACTGCACATGTATCAGGGGATGAAATTTTCCATTGTGGGCATGCCAGTCGGATAGTGTTCC", "values": [
      {"measurement": "binding signal (log2 relative supershift)", "setting": "KLF4 + histone octamer", "result": 1.65},
      {"measurement": "binding signal (log2 relative supershift)", "setting": "OCT4 + histone octamer", "result": 1.38},
      {"measurement": "binding signal (log2 relative supershift)", "setting": "SOX2 + histone octamer", "result": 1.29},
      {"measurement": "binding signal (log2 relative supershift)", "setting": "[1]", "result": 0.078}
    ]},
    {"sequence": "GATGGACCCTATACGCGGCGCTTTTAATCACTTCTTTGTAAAGCCCCACAGTTTTTGCTACTTATTCAGTCCCTCTGCATATCAAATTTGCATTTGAAGATACTCAAAGACTGCTTAAGTGACAAATCACAGATTGCACCAAGCAGGGTGTGAGTGCATGTGTTCTGTGCAGACAGGCTGCTCCAGTCTCACCTGGCTTTCAAAGCCCTCTGCCAGTCGGATAGTGTTCC", "values": [
      {"measurement": "binding signal (log2 relative supershift)", "setting": "KLF4 + histone octamer", "result": 1.46},
      {"measurement": "binding signal (log2 relative supershift)", "setting": "OCT4 + histone octamer", "result": 0.675},
      {"measurement": "binding signal (log2 relative supershift)", "setting": "SOX2 + histone octamer", "result": 1.08},
      {"measurement": "binding signal (log2 relative supershift)", "setting": "[1]", "result": 0.823}
    ]},
    {"sequence": "GATGGACCCTATACGCGGCCCCCTTTCCTGAGAATAGTTTATTACCATGTCCTATTGGTTCTGCCTATCAATGATGTCTCTTGAATCTTTACCCCATCTCTACTACCACCGTGCTAGTCCAAGCCACCATCACTTTCTGCTTGGGATAGCGTGATTGTGAACTGGTCCATACTTGTCTACTCTAGCCTACAGTTCTAATCTCCTCCCTTCTGCCAGTCGGATAGTGTTCC", "values": [
      {"measurement": "binding signal (log2 relative supershift)", "setting": "KLF4 + histone octamer", "result": 2.22},
      {"measurement": "binding signal (log2 relative supershift)", "setting": "OCT4 + histone octamer", "result": 0.0263},
      {"measurement": "binding signal (log2 relative supershift)", "setting": "SOX2 + histone octamer", "result": 0.256},
      {"measurement": "binding signal (log2 relative supershift)", "setting": "[1]", "result": 0.143}
    ]},
    {"sequence": "GATGGACCCTATACGCGGCTCCCCAGTGCTCTCCAGAATGTGACGATGGATGGACTTGAATAAAAATGCTTAGTGAGAATCTGTTGCATTCATTTACCTCCCAATGAGCTCCTTTGGGGACATGTATGGGATAAAGGACAGAAGGCCCAGCAGAAGCATGAGGACAGTTAAAAGTTTTTGCACATCTTCAGGGGAAGGGAGAAGGAGGCTTGCCAGTCGGATAGTGTTCC", "values": [
      {"measurement": "binding signal (log2 relative supershift)", "setting": "KLF4 + histone octamer", "result": 1.1},
      {"measurement": "binding signal (log2 relative supershift)", "setting": "OCT4 + histone octamer", "result": 0.0182},
      {"measurement": "binding signal (log2 relative supershift)", "setting": "SOX2 + histone octamer", "result": 0.0817},
      {"measurement": "binding signal (log2 relative supershift)", "setting": "[1]", "result": 0.0607}
    ]},
    {"sequence": "GATGGACCCTATACGCGGCAAGAACAGCACAGGAAAGACCTGTCCCCATAATTCAATCACTTCCCACCAGGTTCCTCCCATGACATGTGGGAATTGTGGGCGTAACAATTGAAGATGAGATTTGGGTGGGGACACAGCCAAACCATATCAATACCTCAACATAATAAAGGCCACATATGACAAACTCACAGCTAACATTGTATTGAGTGGTGCCAGTCGGATAGTGTTCC", "values": [
      {"measurement": "binding signal (log2 relative supershift)", "setting": "KLF4 + histone octamer", "result": 1.5},
      {"measurement": "binding signal (log2 relative supershift)", "setting": "OCT4 + histone octamer", "result": 0.115},
      {"measurement": "binding signal (log2 relative supershift)", "setting": "SOX2 + histone octamer", "result": 1.54},
      {"measurement": "binding signal (log2 relative supershift)", "setting": "[1]", "result": 0.295}
    ]}
  ]
}
